According to article PMC7819943, “Rice protein-binding microarrays: a tool to detect cis-acting elements near promoter regions in rice”:
The other results are listed elsewhere or left out.

biological target: T1, OsSMF1 (Oryza sativa, UniProt Q6ZLB0 1-436); assay: protein-binding microarray (RPBM); PBS, 2% BSA, 51.3 ng/ul salmon testes DNA, 50 uM zinc acetate, 200 nM TF, 25 C, 1 h; high values mean tight binding; details: protein: recombinant; tags: N-terminal polyhistidine and DsRed monomer fusion (pET32a); chain copies: 2; label: CyDye5-dUTP incorporated in the synthesized complementary strand; 3' TTTTT single-stranded linker to array surface; dsDNA, one strand shown
T1 sequence: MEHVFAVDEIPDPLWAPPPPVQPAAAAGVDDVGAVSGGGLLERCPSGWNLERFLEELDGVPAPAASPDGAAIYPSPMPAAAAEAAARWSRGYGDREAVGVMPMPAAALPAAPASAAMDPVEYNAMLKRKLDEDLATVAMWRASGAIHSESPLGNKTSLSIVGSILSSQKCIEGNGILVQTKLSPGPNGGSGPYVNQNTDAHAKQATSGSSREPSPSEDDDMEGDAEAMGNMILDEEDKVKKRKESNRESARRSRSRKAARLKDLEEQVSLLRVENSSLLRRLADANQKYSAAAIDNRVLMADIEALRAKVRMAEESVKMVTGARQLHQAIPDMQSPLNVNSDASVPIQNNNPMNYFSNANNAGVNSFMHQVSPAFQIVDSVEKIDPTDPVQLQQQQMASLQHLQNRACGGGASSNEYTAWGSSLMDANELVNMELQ
Procedure, shortened: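 In PBS with 2% BSA, salmon testes DNA and 50 µM zinc acetate, 200 nM protein was incubated on a custom Agilent array at 25 °C for 1 h and then washed off. The array had been made double-stranded by primer extension with Cy5-dUTP and blocked with 2% BSA. The proteins were transcription factors fused N-terminally to polyhistidine and DsRed, expressed in E. coli BL21-CodonPlus and purified on Ni–NTA. The binding signal is per-feature fluorescence intensity (arbitrary units) from an Axon 4000B scanner.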

Question: How did the binding signal turn out when “TCTATCGATTTCTCCCTTCCTTCTCTTTCTTCTTTCTTTCCGGAGTCACCTAGTGCAG” was run?
Answer: 21800 fluorescence intensity (a.u.)

Question: “GAAGACTACAAACGCGCTGCGAAAGACGTGGCTCCGTTTTCGGAGTCACCTAGTGCAG” was tested. Which binding signal did it give?
Answer: 4120 fluorescence intensity (a.u.)

Question: With “CGGGCTCCGCGCCGACATGGACGCGCTCCCCATCCAGGTCCGGAGTCACCTAGTGCAG” as the sequence, how does the binding signal read?
Answer: 30700 fluorescence intensity (a.u.)

Question: With “AAGTCGGCAAATGCAGGGGTCCCTTCCGTTACCTCTGCGACGGAGTCACCTAGTGCAG” as the sequence, how does the binding signal read?
Answer: 3840 fluorescence intensity (a.u.)

Question: For “CTCCCGGTCCCATGTCACCGACACCGTTGTCGCCCGGTTCCGGAGTCACCTAGTGCAG”, which binding signal is on record?
Answer: 4890 fluorescence intensity (a.u.)

Question: Which binding signal does the source give for “CACCATGCTCAAGCCACAATTGATAATTTTGTTGGCAGAGCGGAGTCACCTAGTGCAG” here?
Answer: 38600 fluorescence intensity (a.u.)

Question: For “GTTCCCTCCACGTGGGCCATGCTTCCCTGCTTTCTACTTCCGGAGTCACCTAGTGCAG”, which binding signal is on record?
Answer: 17400 fluorescence intensity (a.u.)

Question: For “TGGCTGCCTATATGTAGAGCCCAACACCATGCAAAATGCACGGAGTCACCTAGTGCAG”, which binding signal is on record?
Answer: 14600 fluorescence intensity (a.u.)

Question: With “CAAACCCAAACCAACCCGTTCCACGTCTTTCCCCACGACCCGGAGTCACCTAGTGCAG” as the sequence, how does the binding signal read?
Answer: 4970 fluorescence intensity (a.u.)

Question: Which binding signal does the source give for “CTCGATCCTTTCGAGGCTCGACCACTTGGGCCGCAGTGACCGGAGTCACCTAGTGCAG” here?
Answer: 4090 fluorescence intensity (a.u.)

Question: “AGTAGCGAGCTACTCTCTCTGGTCATCAAGCTTTGAGTGGCGGAGTCACCTAGTGCAG” was tested. Which binding signal did it give?
Answer: 3150 fluorescence intensity (a.u.)

Question: With “CCTGCTCCCCGTCGCCGACGGCGTCACGCTGTGCCGCCGCCGGAGTCACCTAGTGCAG” as the sequence, how does the binding signal read?
Answer: 5480 fluorescence intensity (a.u.)

Question: With “TATCACTTACGGTGGTTGTTGATGTTAACTGGACCTCGATCGGAGTCACCTAGTGCAG” as the sequence, how does the binding signal read?
Answer: 3340 fluorescence intensity (a.u.)

Question: For “CGACTCCGGCCTTGTTGACGAACGAACGAATGATGCGGAGCGGAGTCACCTAGTGCAG”, which binding signal is on record?
Answer: 23700 fluorescence intensity (a.u.)

Question: Which binding signal does the source give for “AATTAGCTAATACTTAATTAATCACGTGCTAATGGATCACCGGAGTCACCTAGTGCAG” here?
Answer: 30100 fluorescence intensity (a.u.)

Question: How did the binding signal turn out when “CCGTCTGCCAGCTCACCCCGTCCCCACCTCTCCTCCCTGCCGGAGTCACCTAGTGCAG” was run?
Answer: 10500 fluorescence intensity (a.u.)

Question: With “TATGCTAAAGGCGAACACCGAGCGCCCACATCACAACACTCGGAGTCACCTAGTGCAG” as the sequence, how does the binding signal read?
Answer: 3520 fluorescence intensity (a.u.)

Question: For “TAAAACAAGAAACAGTGGCGTCAGCTCTTGGAGAACATCCCGGAGTCACCTAGTGCAG”, which binding signal is on record?
Answer: 3940 fluorescence intensity (a.u.)

Question: With “ACTCCTATGGCGTCCGCTGCCAGCTCCATCTGCCACCATCCGGAGTCACCTAGTGCAG” as the sequence, how does the binding signal read?
Answer: 4150 fluorescence intensity (a.u.)

Question: Which binding signal does the source give for “ATTTCAAGCTCGAGCGAGCCGAGCCTATAACGAGTCGAGTCGGAGTCACCTAGTGCAG” here?
Answer: 14200 fluorescence intensity (a.u.)

Question: “ATCTCGGCAAAAGTCGAGTCACTCTCTAATATTCTCCACGCGGAGTCACCTAGTGCAG” was tested. Which binding signal did it give?
Answer: 3650 fluorescence intensity (a.u.)

Question: How did the binding signal turn out when “CGTGATGGTGTTATTTGGTTACATCGGTTTAGAACGGGTTCGGAGTCACCTAGTGCAG” was run?
Answer: 3950 fluorescence intensity (a.u.)

Question: “GGACCATGAATCCTACGGGAGAAGATGCGCCATCCTTATGCGGAGTCACCTAGTGCAG” was tested. Which binding signal did it give?
Answer: 4720 fluorescence intensity (a.u.)

Question: For “TAAACATATGTAGTCATCCCGACTTTGTACCCGGTGACCGCGGAGTCACCTAGTGCAG”, which binding signal is on record?
Answer: 3300 fluorescence intensity (a.u.)

Question: How did the binding signal turn out when “CACCCATTGGCTTGGTATGATGTAATGTAAGCTTCATCCACGGAGTCACCTAGTGCAG” was run?
Answer: 3200 fluorescence intensity (a.u.)

Question: With “CTCTGTACGTTTCGTGCAAACGTGTATAATACGGCAACGCCGGAGTCACCTAGTGCAG” as the sequence, how does the binding signal read?
Answer: 3510 fluorescence intensity (a.u.)

Question: With “GCAATTTCTGTTTCGTTTATATTTGACATTCTCCCTCCGTCGGAGTCACCTAGTGCAG” as the sequence, how does the binding signal read?
Answer: 4010 fluorescence intensity (a.u.)

Question: How did the binding signal turn out when “GGCGGGAAACAGGTGGCGGCGCACCGGTTTCCCCTTTCTGCGGAGTCACCTAGTGCAG” was run?
Answer: 3400 fluorescence intensity (a.u.)

Question: For “AACGCGAGTGACGTATCTGCATACGTGGCAGTAGATCGTCCGGAGTCACCTAGTGCAG”, which binding signal is on record?
Answer: 31400 fluorescence intensity (a.u.)

Question: For “CTGTTTCTTTCAAGCTACACAGTGTTTAAGCATCATTAGGCGGAGTCACCTAGTGCAG”, which binding signal is on record?
Answer: 27900 fluorescence intensity (a.u.)

Question: For “ATAAAAGTCCCCTCCACTTCCTCACCAATTAAACAACACCCGGAGTCACCTAGTGCAG”, which binding signal is on record?
Answer: 21400 fluorescence intensity (a.u.)

Question: For “ATCGTAGACGCGATGATGGCCCACGTAATCTGATTTGGTTCGGAGTCACCTAGTGCAG”, which binding signal is on record?
Answer: 4650 fluorescence intensity (a.u.)

Question: “AGATTATATCTAACAGCTAATTGAATTTATTGTGTCATGACGGAGTCACCTAGTGCAG” was tested. Which binding signal did it give?
Answer: 3430 fluorescence intensity (a.u.)

Question: Which binding signal does the source give for “CGAAATCTAAATGTTTATGTAGTAGTATAGTATACACTAGCGGAGTCACCTAGTGCAG” here?
Answer: 14400 fluorescence intensity (a.u.)

Question: With “GTCATTTAAAAGTGTCTTGATTTCATGACGTACTACGTATCGGAGTCACCTAGTGCAG” as the sequence, how does the binding signal read?
Answer: 5430 fluorescence intensity (a.u.)

Question: Which binding signal does the source give for “TAGGGTTCTCGGAATCGAGCCATCGATTTGAATCCAACCTCGGAGTCACCTAGTGCAG” here?
Answer: 28200 fluorescence intensity (a.u.)

Question: How did the binding signal turn out when “AGCTTATGTACACAAAACATGTTCATGACGCAGATTACATCGGAGTCACCTAGTGCAG” was run?
Answer: 5050 fluorescence intensity (a.u.)

Question: How did the binding signal turn out when “GTTGAGACAACTAGTGATAAAGTTAACGTGTCAGAGAACGCGGAGTCACCTAGTGCAG” was run?
Answer: 4820 fluorescence intensity (a.u.)

Question: For “AATGCTTATATTGGTAGACGGAGGCGATAATCCTTGTCATCGGAGTCACCTAGTGCAG”, which binding signal is on record?
Answer: 4150 fluorescence intensity (a.u.)

Question: How did the binding signal turn out when “ACGCGCCACGTGCGTTAGCGTCCACGTCACACGCTTGCACCGGAGTCACCTAGTGCAG” was run?
Answer: 36200 fluorescence intensity (a.u.)

Question: For “AATCTCGGTGCTGAGTGGACATGAATGAATGATGGAATCTCGGAGTCACCTAGTGCAG”, which binding signal is on record?
Answer: 4150 fluorescence intensity (a.u.)

Question: Which binding signal does the source give for “AGGAGGAGGAGGAGGAGGAGGAGGAGGCGGTGGGAGGGATCGGAGTCACCTAGTGCAG” here?
Answer: 4490 fluorescence intensity (a.u.)
